Construct, isoform or probe ends are uncertain for at least one entry. For part of these data: Protein sequences can lack the tags named with them.
Key:
Experiment in all cases: human ORF protein microarray
ZRANB1 (Homo sapiens) = molecular target: T1, ZRANB1 (Homo sapiens) (UniProt Q9UGI0); settings: 5' phosphate; Domain array: 20 mM Tris-HCl pH 7.4, 200 mM KCl, 0.2 mM EDTA, 0.05% NP40, 2 ug/ul heparin, overnight 4 C. ORF array: PBS pH 7.0 with RNase inhibitor, 100 ng RNA, 1 h.; recombinant protein; protein details: N-terminal GST-6xHis; label: internal DY647 at G18; letters put together from the description
T1 sequence (looked up, limits assumed): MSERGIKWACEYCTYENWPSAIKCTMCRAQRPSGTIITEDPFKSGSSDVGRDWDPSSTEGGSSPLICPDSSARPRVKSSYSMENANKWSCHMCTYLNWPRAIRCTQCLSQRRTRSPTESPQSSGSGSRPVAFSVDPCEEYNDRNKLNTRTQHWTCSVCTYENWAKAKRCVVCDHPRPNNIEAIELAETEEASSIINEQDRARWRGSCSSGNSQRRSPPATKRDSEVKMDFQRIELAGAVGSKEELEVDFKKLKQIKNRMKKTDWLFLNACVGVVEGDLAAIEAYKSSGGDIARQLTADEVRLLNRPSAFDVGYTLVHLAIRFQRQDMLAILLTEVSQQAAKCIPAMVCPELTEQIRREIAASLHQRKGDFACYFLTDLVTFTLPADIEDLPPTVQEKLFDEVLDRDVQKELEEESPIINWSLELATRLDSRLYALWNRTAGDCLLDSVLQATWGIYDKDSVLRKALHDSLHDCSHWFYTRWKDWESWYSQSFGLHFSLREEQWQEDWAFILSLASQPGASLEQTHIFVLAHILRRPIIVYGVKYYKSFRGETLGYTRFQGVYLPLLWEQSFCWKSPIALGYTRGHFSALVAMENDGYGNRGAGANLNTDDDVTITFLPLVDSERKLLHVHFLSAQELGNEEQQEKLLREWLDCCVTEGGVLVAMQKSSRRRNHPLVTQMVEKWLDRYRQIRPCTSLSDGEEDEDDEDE

Protein sequences, listed by entry. Tags and fused reporters are not part of them. Lines headed by an entry give the natural chain unless they say otherwise; changes in a name come on top.
UniProt P25440: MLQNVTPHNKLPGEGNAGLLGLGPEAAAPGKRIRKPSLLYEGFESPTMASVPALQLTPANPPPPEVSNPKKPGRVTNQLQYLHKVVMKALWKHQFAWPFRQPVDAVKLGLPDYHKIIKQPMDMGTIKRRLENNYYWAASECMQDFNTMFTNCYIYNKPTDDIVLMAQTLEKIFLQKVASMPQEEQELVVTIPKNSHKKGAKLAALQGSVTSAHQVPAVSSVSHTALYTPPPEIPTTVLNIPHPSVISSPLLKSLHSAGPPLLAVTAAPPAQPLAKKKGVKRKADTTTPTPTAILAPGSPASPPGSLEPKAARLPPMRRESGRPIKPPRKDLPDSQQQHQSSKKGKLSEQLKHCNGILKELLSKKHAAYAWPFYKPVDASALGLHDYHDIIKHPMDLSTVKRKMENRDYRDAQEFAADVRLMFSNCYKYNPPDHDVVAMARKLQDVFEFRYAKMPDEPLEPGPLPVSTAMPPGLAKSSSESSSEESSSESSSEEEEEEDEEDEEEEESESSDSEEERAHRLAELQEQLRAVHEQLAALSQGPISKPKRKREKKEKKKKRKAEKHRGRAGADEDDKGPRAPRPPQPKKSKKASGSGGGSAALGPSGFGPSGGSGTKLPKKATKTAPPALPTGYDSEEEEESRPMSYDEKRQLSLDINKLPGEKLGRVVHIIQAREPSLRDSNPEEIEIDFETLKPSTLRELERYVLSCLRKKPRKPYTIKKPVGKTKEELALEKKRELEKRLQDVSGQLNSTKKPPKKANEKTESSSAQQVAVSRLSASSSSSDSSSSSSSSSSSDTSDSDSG

DUOXA1 (Homo sapiens) = molecular target: T2, DUOXA1 (Homo sapiens) (UniProt Q1HG43); settings: 5' phosphate; Domain array: 20 mM Tris-HCl pH 7.4, 200 mM KCl, 0.2 mM EDTA, 0.05% NP40, 2 ug/ul heparin, overnight 4 C. ORF array: PBS pH 7.0 with RNase inhibitor, 100 ng RNA, 1 h.; recombinant protein; protein details: N-terminal GST-6xHis; label: internal DY647 at G18; letters put together from the description
T2 sequence (looked up, limits assumed): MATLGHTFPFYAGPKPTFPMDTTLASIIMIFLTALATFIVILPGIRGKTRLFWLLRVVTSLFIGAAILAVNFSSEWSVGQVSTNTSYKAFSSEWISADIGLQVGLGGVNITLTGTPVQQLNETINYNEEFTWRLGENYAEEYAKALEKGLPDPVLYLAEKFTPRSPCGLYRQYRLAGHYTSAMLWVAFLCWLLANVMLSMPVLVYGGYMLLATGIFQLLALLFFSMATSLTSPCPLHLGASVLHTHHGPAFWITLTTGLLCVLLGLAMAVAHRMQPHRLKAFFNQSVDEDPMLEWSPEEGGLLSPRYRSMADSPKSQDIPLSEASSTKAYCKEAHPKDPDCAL

C7orf33 (Homo sapiens) = molecular target: T3, C7orf33 (Homo sapiens) (UniProt Q8WU49); settings: 5' phosphate; Domain array: 20 mM Tris-HCl pH 7.4, 200 mM KCl, 0.2 mM EDTA, 0.05% NP40, 2 ug/ul heparin, overnight 4 C. ORF array: PBS pH 7.0 with RNase inhibitor, 100 ng RNA, 1 h.; recombinant protein; protein details: N-terminal GST-6xHis; label: internal DY647 at G18; letters put together from the description
T3 sequence (looked up, limits assumed): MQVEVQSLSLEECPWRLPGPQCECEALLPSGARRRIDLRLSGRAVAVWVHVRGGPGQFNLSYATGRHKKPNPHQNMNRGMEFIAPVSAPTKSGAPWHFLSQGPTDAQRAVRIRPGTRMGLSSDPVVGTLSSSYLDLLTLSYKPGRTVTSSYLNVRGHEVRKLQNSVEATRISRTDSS

ARHGAP28 (Homo sapiens) = molecular target: T4, ARHGAP28 (Homo sapiens) (UniProt Q9P2N2); settings: 5' phosphate; amino-C6 U at position 18; Domain array: 20 mM Tris-HCl pH 7.4, 200 mM KCl, 0.2 mM EDTA, 0.05% NP40, 2 ug/ul heparin, overnight 4 C. ORF array: PBS pH 7.0 with RNase inhibitor, 100 ng RNA, 1 h.; recombinant protein; protein details: N-terminal GST-6xHis; label: internal Cy5 or DY647
T4 sequence (looked up, limits assumed): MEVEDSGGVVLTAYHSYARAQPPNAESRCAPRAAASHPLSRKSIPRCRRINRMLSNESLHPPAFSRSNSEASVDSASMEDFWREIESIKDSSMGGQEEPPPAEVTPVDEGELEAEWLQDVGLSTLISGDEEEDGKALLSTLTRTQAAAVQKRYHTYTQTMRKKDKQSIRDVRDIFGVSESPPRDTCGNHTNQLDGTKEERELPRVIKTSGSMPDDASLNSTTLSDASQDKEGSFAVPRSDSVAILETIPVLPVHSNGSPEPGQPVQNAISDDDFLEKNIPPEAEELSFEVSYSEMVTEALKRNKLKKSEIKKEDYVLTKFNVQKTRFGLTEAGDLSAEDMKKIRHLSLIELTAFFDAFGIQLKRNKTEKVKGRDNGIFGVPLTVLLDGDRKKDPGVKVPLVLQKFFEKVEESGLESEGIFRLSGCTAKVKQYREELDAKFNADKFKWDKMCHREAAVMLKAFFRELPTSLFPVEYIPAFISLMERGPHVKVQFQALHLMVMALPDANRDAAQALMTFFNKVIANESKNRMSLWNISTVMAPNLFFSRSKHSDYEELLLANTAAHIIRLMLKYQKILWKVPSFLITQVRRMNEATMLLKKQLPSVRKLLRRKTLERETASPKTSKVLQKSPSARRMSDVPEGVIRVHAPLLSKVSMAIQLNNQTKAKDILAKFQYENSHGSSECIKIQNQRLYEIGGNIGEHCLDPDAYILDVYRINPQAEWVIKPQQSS

BRD2 (Homo sapiens) = BRD2 (Homo sapiens) (UniProt P25440); settings: 5' phosphate; amino-C6 U at position 18; Domain array: 20 mM Tris-HCl pH 7.4, 200 mM KCl, 0.2 mM EDTA, 0.05% NP40, 2 ug/ul heparin, overnight 4 C. ORF array: PBS pH 7.0 with RNase inhibitor, 100 ng RNA, 1 h.; recombinant protein; protein details: N-terminal GST-6xHis; label: internal Cy5 or DY647
FBXL7 (Homo sapiens) = molecular target: T5, FBXL7 (Homo sapiens) (UniProt Q9UJT9); settings: 5' phosphate; amino-C6 U at position 18; Domain array: 20 mM Tris-HCl pH 7.4, 200 mM KCl, 0.2 mM EDTA, 0.05% NP40, 2 ug/ul heparin, overnight 4 C. ORF array: PBS pH 7.0 with RNase inhibitor, 100 ng RNA, 1 h.; recombinant protein; protein details: N-terminal GST-6xHis; label: internal Cy5 or DY647
T5 sequence (looked up, limits assumed): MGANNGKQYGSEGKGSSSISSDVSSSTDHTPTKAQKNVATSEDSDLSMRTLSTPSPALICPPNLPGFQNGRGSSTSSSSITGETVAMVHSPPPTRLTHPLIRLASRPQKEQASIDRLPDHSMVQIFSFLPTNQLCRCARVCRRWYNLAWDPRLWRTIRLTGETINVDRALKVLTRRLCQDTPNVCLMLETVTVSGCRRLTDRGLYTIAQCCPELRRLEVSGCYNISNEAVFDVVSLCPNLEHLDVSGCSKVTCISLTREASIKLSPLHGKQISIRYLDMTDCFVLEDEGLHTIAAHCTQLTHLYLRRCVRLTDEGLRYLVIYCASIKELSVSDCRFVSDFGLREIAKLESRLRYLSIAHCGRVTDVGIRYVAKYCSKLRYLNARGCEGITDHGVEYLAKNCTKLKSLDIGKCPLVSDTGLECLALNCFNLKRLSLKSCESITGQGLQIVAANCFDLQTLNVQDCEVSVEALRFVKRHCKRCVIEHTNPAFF

## CAGUGCAAUGAUGAAAGGGCAU [miR-130b (internal labeling)]
ZRANB1 (Homo sapiens)
  binding result: binds
DUOXA1 (Homo sapiens)
  binding result: binds

## UAGCUUAUCAGACUGAUGUUGA [miR-21 (internal labeling)]
C7orf33 (Homo sapiens)
  binding result: binds

## UGAGGUAGUAGGUUGUGUGGUU [let-7b (internal labeling)]
ARHGAP28 (Homo sapiens)
  binding result: binds
BRD2 (Homo sapiens)
  binding result: binds
FBXL7 (Homo sapiens)
  binding result: binds

Source: publication PMC11574364
